From patent publication US8492099B2, “Method of measuring enzymatic activity of adsorbed allergenic enzyme” (Alk-Abello A/S, priority 2005, dated 2013)
Marks after values point to notes of the source that are not given here.

B1: papain: cysteine protease Car p 1 from the plant Carica papaya, purified, Sigma; chosen as negative control (protein, UniProt P00784 134-345, looked up)
Papain: IPEYVDWRQKGAVTPVKNQGSCGSCWAFSAVVTIEGIIKIRTGNLNEYSEQELLDCDRRSYGCNGGYPWSALQLVAQYGIHYRNTYPYEGVQRYCRSREKGPYAAKTDGVRQVQPYNEGALLYSIANQPVSVVLEAAGKDFQLYRGGIFVGPCGNKVDHAVAAVGYGPNYILIKNSWGTGWGENGYIRIKRGTGNSYGVCGLYTSSFYPVKN
B2: Der p 1: major house dust mite allergen, family C1 cysteine protease, purified from D. pteronyssinus extract (protein, UniProt P08176 99-320, looked up)
Peptidase 1: TNACSINGNAPAEIDLRQMRTVTPIRMQGGCGSCWAFSGVAATESAYLAYRNQSLDLAEQELVDCASQHGCHGDTIPRGIEYIQHNGVVQESYYRYVAREQSCRRPNAQRFGISNYCQIYPPNVNKIREALAQTHSAIAVIIGIKDLDAFRHYDGRTIIQRDNGYQPNYHAVNIVGYSNAQGVDYWIVRNSWDTNWGDNGYGYFAANIDLMMIEEYPYVVIL

How the values were obtained:
[1] = Adsorption of papain to aluminium hydroxide: protein concentration by A280; assay type: physicochemical
Excerpt: (§1) The aromatic amino acids tryptophan, tyrosine and phenylalanine absorb ultraviolet light. However only tryptophan and tyrosine absorb at 280 nm and tryptophan absorbs 5 times more light than tyrosine. This is due to the […] transition in the indole ring of tryptophan where phenylalanine and tyrosine contains a phenyl group. The absorbance of a protein is linearly correlated with the amount of tryptophan and tyrosine in the protein, the length of the light path and the concentration of protein. This relationship is named Lambert-Beer's law and is given by: A=ε·l·c where A is the absorbance, ε is the molar absorption coefficient for the protein (determined by the amount of tryptophan and tyrosine in the protein) l is the length of the light path and c is the protein concentration. Thus from an absorbance measurement the concentration of protein can be estimated if the molar absorptivity coefficient is known. • Apparatuses • Lambda 800 UV/VIS Spectrometer, PerkinElmer™ • 100-QS, quartz cuvette, path length 1 cm, Hellma® • Materials and Reagents • 50 mM Bis-Tris pH 6.5, Sigma • 50 mM Tris pH 7.0, Sigma • 50 mM phosphate buffer pH 7.0, Merck • 2% Helmanex solution, Hellma Experimental Procedure
The spectrophotometer was turned on 30 min prior to use for a warm up period. […] After cleaning the cuvette 20 μL of sample was transferred to the cuvette and the absorbance was measured. […]

[2] = Adsorption of Der p 1 to aluminium hydroxide: protein concentration by A280; assay type: physicochemical
Excerpt: as §1
The spectrophotometer was turned on 30 min prior to use for a warm up period. The wavelength of the spectrophotometer was set to 280 nm and the instrument was zeroed to a blank sample containing the matrix of the true sample. The quartz cuvette was washed first with a 2% Helmanex solution and then 4 times with MQ water and afterwards dried with high pressure air. […] After cleaning the cuvette 20 μL of sample was transferred to the cuvette and the absorbance was measured.
After adsorption 500 μL was taken out for further analysis and the rest of the mixture was centrifuged for 10 min at 4000 rpm. […] Con1 was analyzed in the beginning of the experiment and Con2 was analyzed at the end of the 2 hours experiment.
The absorbance measurements were converted to protein concentration by the Lambert-Beer's law using a molar absorption coefficient for Der p 1 of […] as shown in table 8a. […]

| Molecule | Protein concentration (determined by A280) ([1]; Adsorbed (mix 2), determined indirectly, difference between Con and Sup1) | Protein concentration (determined by A280) ([1]; Control: papain in the absence of aluminium hydroxide) | Protein concentration (determined by A280) ([2]; Adsorbed (mix 2), determined indirectly, difference between Con1 and Sup) | Protein concentration (determined by A280) ([2]; Control: Der p 1 in the absence of aluminium hydroxide) | Protein concentration (determined by A280) ([2]; Eluted: Der p 1 eluted from aluminium hydroxide with phosphate buffer) |
| --- | --- | --- | --- | --- | --- |
| B1 | 3.0 ng/mL | 70.8 ng/mL | – | – | – |
| B2 | – | – | 7.1* | 10.4 | 4.0 |
